Data as given in PubChem BioAssay AID1508588 (Peter MacCallum Cancer Centre, 2020).
Shown is an unselected part of about 18,000 reagents. Over the whole deposit, 790 (4.4%) are marked active. 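Calls rest on a combination of fold-change classes in drug and vehicle arms, not all shown here.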 The numbers tell different reagents against one gene apart. Reagent sequences are not shown.

Screen: 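Genome-wide search for knock-downs that heighten vemurafenib action in melanoma cells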 (primary screen)
System: human WM266.4 melanoma cells (BRAF V600 mutant)
Reagent: siRNA pool against human genes, 40 nM
Duration: 96 h from transfection to read-out
Treatment: vemurafenib 300 nM (about IC25), added 48 h after transfection, for 48 h; comparison arm got DMSO vehicle only
Read-out: 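Ratios to non-targeting siRNA for cell gain, counted as DAPI nuclei after minus before drug and averaged over two replicates, and for absorbance-read medium lactate per cell; both binned into fold-change classes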
Reading the numbers: cell gain with vemurafenib: higher = more cell gain than with non-targeting siRNA; lactate per cell with vemurafenib: higher = more lactate made per cell
Call rule: 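a knock-down counts as enhancing when its fold-change classes with vehicle and with vemurafenib, taken together, show a stronger drug effect on cell gain or lactate per cell; exact class pairs not stated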
Calls: active = enhances vemurafenib effect; inactive = no enhancement seen

no.	Gene	reagent no.	cell gain with vemurafenib	lactate per cell with vemurafenib	Outcome
1	UBL4B (ubiquitin like 4B)	1	0.95	0.62	inactive
2	HS3ST3A1 (heparan sulfate-glucosamine 3-sulfotransferase 3A1)	1	0.66	0.68	inactive
3	KLB (klotho beta)	1	0.6	1.2	inactive
4	TIMM50 (translocase of inner mitochondrial membrane 50)	1	0.56	0.78	inactive
5	SPIN4 (spindlin family member 4)	1	1.15	0.77	inactive
6	CPVL (carboxypeptidase vitellogenic like)	1	0.98	0.58	inactive
7	CYP3A7 (cytochrome P450 family 3 subfamily A member 7)	1	0.7	1.41	inactive
8	GCK (glucokinase)	1	-0.01	0.3	active
9	DOK7 (docking protein 7)	1	0.85	0.96	inactive
10	CDC23 (cell division cycle 23)	1	0.55	0.51	inactive
11	TRAK1 (trafficking kinesin protein 1)	1	0.08	1.09	inactive
12	SH3BGRL (SH3 domain binding glutamate rich protein like)	1	0.65	0.64	inactive
13	SBK1 (SH3 domain binding kinase 1)	1	0.37	1.82	inactive
14	GRIN1 (glutamate ionotropic receptor NMDA type subunit 1)	1	0.44	2.53	inactive
15	ATR (ATR checkpoint kinase)	1	0.21	1.75	inactive
16	TUBA3D (tubulin alpha 3d)	1	0.86	0.49	inactive
17	SPATA19 (spermatogenesis associated 19)	1	0.46	1.83	inactive
18	MCMBP (minichromosome maintenance complex binding protein)	1	0.72	0.64	inactive
19	OR4A16 (olfactory receptor family 4 subfamily A member 16)	1	0.32	0.82	inactive
20	CYB5R1 (cytochrome b5 reductase 1)	1	0.64	1.38	inactive
21	OS9 (OS9 endoplasmic reticulum lectin)	1	1.15	0.98	inactive
22	TERF2IP (TERF2 interacting protein)	1	0.01	1.99	inactive
23	PRND (prion like protein doppel)	1	0.2	1.41	inactive
24	GPSM2 (G protein signaling modulator 2)	1	0.8	0.82	inactive
25	SETDB2 (SET domain bifurcated histone lysine methyltransferase 2)	1	0.8	1.16	inactive
26	CIC (capicua transcriptional repressor)	1	1.16	0.35	inactive
27	SFRP5 (secreted frizzled related protein 5)	1	0.41	1.27	inactive
28	POLR1A (RNA polymerase I subunit A)	1	0.91	0.38	inactive
29	MED22 (mediator complex subunit 22)	1	0.73	1.06	inactive
30	BUD13 (BUD13 spliceosome associated protein)	1	0.7	1.29	inactive
31	PDE10A (phosphodiesterase 10A)	1	0.52	0.72	inactive
32	MIS12 (MIS12 kinetochore complex component)	1	0.36	0.9	inactive
33	SAR1A (secretion associated Ras related GTPase 1A)	1	1.08	1.4	inactive
34	VSIG2 (V-set and immunoglobulin domain containing 2)	1	0.55	1.31	inactive
35	NCR3 (natural cytotoxicity triggering receptor 3)	1	0.14	0.8	inactive
36	NSMCE1 (NSE1 component of SMC5/6 complex)	1	1.26	1	inactive
37	HINT1 (histidine triad nucleotide binding protein 1)	1	0.65	0.57	inactive
38	SKIC2 (SKI2 subunit of superkiller complex)	1	0.38	1.17	inactive
39	CABCOCO1 (ciliary associated calcium binding coiled-coil 1)	1	0.73	0.88	inactive
40	GATD1 (glutamine amidotransferase class 1 domain containing 1)	1	0.36	1.14	inactive
41	H1-7 (H1.7 linker histone)	1	0.76	0.69	inactive
42	FH (fumarate hydratase)	1	1.15	0.45	inactive
43	RAB3D (RAB3D, member RAS oncogene family)	1	0.87	0.75	inactive
44	CLPS (colipase)	1	0.41	2.84	inactive
45	HSD17B10 (hydroxysteroid 17-beta dehydrogenase 10)	1	0.92	0.64	inactive
46	GLT1D1 (glycosyltransferase 1 domain containing 1)	1	1.16	0.6	inactive
47	QSOX1 (quiescin sulfhydryl oxidase 1)	1	0.39	1.85	inactive
48	ZBTB7B (zinc finger and BTB domain containing 7B)	1	0.79	0.72	inactive
49	TACR3 (tachykinin receptor 3)	1	0.68	0.9	inactive
50	ST8SIA6 (ST8 alpha-N-acetyl-neuraminide alpha-2,8-sialyltransferase 6)	1	0.5	0.88	inactive
51	OR11H6 (olfactory receptor family 11 subfamily H member 6)	1	0.03	0.33	inactive
52	HIPK4 (homeodomain interacting protein kinase 4)	1	0.67	1.02	inactive
53	PLEKHG3 (pleckstrin homology and RhoGEF domain containing G3)	1	0.53	0.46	inactive
54	PTPN7 (protein tyrosine phosphatase non-receptor type 7)	1	0.92	0.77	inactive
55	KCNH6 (potassium voltage-gated channel subfamily H member 6)	1	0.37	0.7	inactive
56	PTK7 (protein tyrosine kinase 7 (inactive))	1	0.81	1.25	inactive
57	DDX4 (DEAD-box helicase 4)	1	0.53	0.76	inactive
58	EPM2AIP1 (EPM2A interacting protein 1)	1	0.48	1.34	inactive
59	SYDE1 (synapse defective Rho GTPase activating protein 1)	1	0.76	1.26	inactive
60	COQ10B (coenzyme Q10B)	1	0.76	2.2	inactive
61	SRSF8 (serine and arginine rich splicing factor 8)	1	1.11	0.97	inactive
62	TSSK3 (testis specific serine kinase 3)	1	0.33	1.31	inactive
63	C8B (complement C8 beta chain)	1	0.2	1.14	inactive
64	TAF10 (TATA-box binding protein associated factor 10)	1	0.67	0.58	inactive
65	IGFBPL1 (insulin like growth factor binding protein like 1)	1	0.64	1.23	inactive
66	LINC00471 (long independently transcribed non-coding RNA 471)	1	0.46	1.98	inactive
67	PLEKHM1 (pleckstrin homology and RUN domain containing M1)	1	0.75	0.72	inactive
68	COQ6 (coenzyme Q6, monooxygenase)	1	1.03	0.4	inactive
69	RNF43 (ring finger protein 43)	1	1.05	0.78	inactive
70	TMEM132E-DT (TMEM132E divergent transcript)	1	0.66	1.17	inactive
71	SDAD1 (SDA1 domain containing 1)	1	0.48	0.32	active
72	CDNF (cerebral dopamine neurotrophic factor)	1	0.92	0.97	inactive
73	ELF1 (E74 like ETS transcription factor 1)	1	0.39	1.4	inactive
74	IL1R1 (interleukin 1 receptor type 1)	1	0.38	0.76	inactive
75	NDUFV3 (NADH:ubiquinone oxidoreductase subunit V3)	1	0.73	0.64	inactive
76	CLK1 (CDC like kinase 1)	1	0.96	1.03	inactive
77	PLA2G3 (phospholipase A2 group III)	1	0.49	1.16	inactive
78	RNASE10 (ribonuclease A family member 10 (inactive))	1	0.86	0.7	inactive
79	CCR10 (C-C motif chemokine receptor 10)	1	0.49	0.69	inactive
80	RAB19 (RAB19, member RAS oncogene family)	1	0.54	1.17	inactive
81	TSC1 (TSC complex subunit 1)	1	1.03	0.61	inactive
82	TOR1AIP2 (torsin 1A interacting protein 2)	1	0.93	1.37	inactive
83	TOR1AIP2 (torsin 1A interacting protein 2)	2	0.77	1	inactive
84	PITX2 (paired like homeodomain 2)	1	0.55	1.32	inactive
85	SERPINB7 (serpin family B member 7)	1	0.59	0.29	active
86	NTPCR (nucleoside-triphosphatase, cancer-related)	1	0.67	1.07	inactive
87	TSPAN2 (tetraspanin 2)	1	0.42	1.98	inactive
88	JCHAIN (joining chain of multimeric IgA and IgM)	1	0.31	2.77	inactive
89	MLF1 (myeloid leukemia factor 1)	1	0.53	1.04	inactive
90	MUC1 (mucin 1, cell surface associated)	1	1.18	0.9	inactive
91	IL17RA (interleukin 17 receptor A)	1	0.29	1.17	inactive
92	PRKCQ (protein kinase C theta)	1	0.7	0.76	inactive
93	DAZ3 (deleted in azoospermia 3)	1	0.29	1.25	inactive
94	ZNF613 (zinc finger protein 613)	1	0.21	1.04	inactive
95	SLU7 (spliceosome associated SLU7)	1	0.2	0.88	inactive
96	GRHL3 (grainyhead like transcription factor 3)	1	0.8	0.24	inactive
97	TMA7 (translation machinery associated 7 homolog)	1	0.04	2.18	inactive
98	MARCHF10 (membrane associated ring-CH-type finger 10)	1	0.98	0.68	inactive
99	PTPRJ (protein tyrosine phosphatase receptor type J)	1	0.95	0.64	inactive
100	GTSF1 (gametocyte specific factor 1)	1	0.95	1.12	inactive
101	ASTL (astacin like metalloendopeptidase)	1	0.2	0.76	inactive
102	SETMAR (SET and mariner transposase domain methyltransferase)	1	0.81	0.76	inactive
103	CT47A9 (cancer/testis antigen family 47 member A9)	1	0.81	0.54	inactive
104	LRRC63 (leucine rich repeat containing 63)	1	0.74	0.7	inactive
105	BANF2 (BANF family member 2)	1	0.29	2.25	inactive
106	LAPTM4A (lysosomal protein transmembrane 4 alpha)	1	0.27	0.44	inactive
107	HLA-DQB1 (major histocompatibility complex, class II, DQ beta 1)	1	0.45	0.64	inactive

Laid out differently: entries from further up.
Gene	reagent no.	cell gain with vemurafenib	lactate per cell with vemurafenib	Outcome
SLU7 (spliceosome associated SLU7)	1	0.2	0.88	inactive
GRHL3 (grainyhead like transcription factor 3)	1	0.8	0.24	inactive
TMA7 (translation machinery associated 7 homolog)	1	0.04	2.18	inactive
MARCHF10 (membrane associated ring-CH-type finger 10)	1	0.98	0.68	inactive
PTPRJ (protein tyrosine phosphatase receptor type J)	1	0.95	0.64	inactive
GTSF1 (gametocyte specific factor 1)	1	0.95	1.12	inactive
ASTL (astacin like metalloendopeptidase)	1	0.2	0.76	inactive
SETMAR (SET and mariner transposase domain methyltransferase)	1	0.81	0.76	inactive
